Results from the supplement of paper PMC6411743.
± gives the standard deviation of the averaged measurements. Only a part is listed here, and it is no random draw. Most entries show no effect beyond the scatter of the controls.

Sequences of proteins named here, by UniProt entry; tags and fusion partners are left off. A change or cut given only in a name is not applied to a line headed by its entry.
UniProt P16930: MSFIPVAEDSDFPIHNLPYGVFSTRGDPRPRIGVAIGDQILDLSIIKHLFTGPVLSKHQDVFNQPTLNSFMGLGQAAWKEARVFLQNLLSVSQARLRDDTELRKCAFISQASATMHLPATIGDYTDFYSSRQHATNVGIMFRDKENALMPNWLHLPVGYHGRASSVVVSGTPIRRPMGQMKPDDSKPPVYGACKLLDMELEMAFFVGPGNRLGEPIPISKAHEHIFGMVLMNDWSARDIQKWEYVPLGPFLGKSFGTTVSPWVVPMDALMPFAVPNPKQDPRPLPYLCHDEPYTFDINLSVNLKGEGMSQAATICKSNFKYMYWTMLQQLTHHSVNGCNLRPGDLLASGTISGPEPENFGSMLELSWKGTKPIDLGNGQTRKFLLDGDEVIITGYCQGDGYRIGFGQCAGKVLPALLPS
UniProt P00167, whole entry: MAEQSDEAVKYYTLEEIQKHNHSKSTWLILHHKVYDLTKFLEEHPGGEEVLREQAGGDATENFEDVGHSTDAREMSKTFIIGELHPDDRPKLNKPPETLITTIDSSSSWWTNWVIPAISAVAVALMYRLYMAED
UniProt P07108: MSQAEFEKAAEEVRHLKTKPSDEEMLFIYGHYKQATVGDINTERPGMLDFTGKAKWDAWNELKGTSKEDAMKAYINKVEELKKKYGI
UniProt P01137, whole entry: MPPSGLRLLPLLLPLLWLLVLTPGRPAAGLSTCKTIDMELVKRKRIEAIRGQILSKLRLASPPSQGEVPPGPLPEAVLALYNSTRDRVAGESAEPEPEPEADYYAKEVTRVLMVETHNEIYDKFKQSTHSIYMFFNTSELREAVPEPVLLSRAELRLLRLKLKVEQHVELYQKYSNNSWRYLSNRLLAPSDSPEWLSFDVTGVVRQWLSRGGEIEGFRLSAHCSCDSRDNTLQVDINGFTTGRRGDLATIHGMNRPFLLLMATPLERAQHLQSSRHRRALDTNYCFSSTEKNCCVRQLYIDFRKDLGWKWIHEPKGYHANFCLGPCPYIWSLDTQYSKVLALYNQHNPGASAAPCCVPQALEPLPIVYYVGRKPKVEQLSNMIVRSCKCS
UniProt P00966: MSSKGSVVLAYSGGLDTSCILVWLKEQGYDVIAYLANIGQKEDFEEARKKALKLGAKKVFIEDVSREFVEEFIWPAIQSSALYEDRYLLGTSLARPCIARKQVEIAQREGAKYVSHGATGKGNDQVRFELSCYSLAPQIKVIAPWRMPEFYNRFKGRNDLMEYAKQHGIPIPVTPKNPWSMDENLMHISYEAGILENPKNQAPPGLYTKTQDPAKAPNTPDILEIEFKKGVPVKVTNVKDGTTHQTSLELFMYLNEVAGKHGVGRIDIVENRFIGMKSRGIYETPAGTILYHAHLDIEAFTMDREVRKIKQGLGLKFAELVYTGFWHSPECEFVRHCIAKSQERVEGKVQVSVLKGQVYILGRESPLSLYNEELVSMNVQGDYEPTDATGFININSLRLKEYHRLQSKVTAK
UniProt P02794, whole entry: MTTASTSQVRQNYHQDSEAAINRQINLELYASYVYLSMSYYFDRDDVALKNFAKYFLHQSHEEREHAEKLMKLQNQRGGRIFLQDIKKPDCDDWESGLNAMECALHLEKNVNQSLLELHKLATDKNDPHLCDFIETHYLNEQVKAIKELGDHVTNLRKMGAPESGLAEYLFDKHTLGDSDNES
UniProt P14649: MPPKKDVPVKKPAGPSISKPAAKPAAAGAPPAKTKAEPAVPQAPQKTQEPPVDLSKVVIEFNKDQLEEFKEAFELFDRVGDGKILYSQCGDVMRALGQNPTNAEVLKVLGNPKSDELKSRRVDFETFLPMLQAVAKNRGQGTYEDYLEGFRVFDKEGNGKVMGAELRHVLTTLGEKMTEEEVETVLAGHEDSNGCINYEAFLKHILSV
UniProt P04075: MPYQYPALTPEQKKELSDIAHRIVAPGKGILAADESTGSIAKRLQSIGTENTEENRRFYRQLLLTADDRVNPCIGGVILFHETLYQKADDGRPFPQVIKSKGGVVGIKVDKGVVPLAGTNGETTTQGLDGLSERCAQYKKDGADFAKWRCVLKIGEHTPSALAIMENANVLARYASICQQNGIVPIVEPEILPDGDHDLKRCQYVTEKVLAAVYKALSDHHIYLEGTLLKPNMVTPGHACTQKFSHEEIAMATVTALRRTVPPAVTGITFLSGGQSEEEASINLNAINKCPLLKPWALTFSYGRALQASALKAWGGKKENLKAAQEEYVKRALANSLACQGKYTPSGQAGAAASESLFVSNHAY
UniProt P12270, whole entry: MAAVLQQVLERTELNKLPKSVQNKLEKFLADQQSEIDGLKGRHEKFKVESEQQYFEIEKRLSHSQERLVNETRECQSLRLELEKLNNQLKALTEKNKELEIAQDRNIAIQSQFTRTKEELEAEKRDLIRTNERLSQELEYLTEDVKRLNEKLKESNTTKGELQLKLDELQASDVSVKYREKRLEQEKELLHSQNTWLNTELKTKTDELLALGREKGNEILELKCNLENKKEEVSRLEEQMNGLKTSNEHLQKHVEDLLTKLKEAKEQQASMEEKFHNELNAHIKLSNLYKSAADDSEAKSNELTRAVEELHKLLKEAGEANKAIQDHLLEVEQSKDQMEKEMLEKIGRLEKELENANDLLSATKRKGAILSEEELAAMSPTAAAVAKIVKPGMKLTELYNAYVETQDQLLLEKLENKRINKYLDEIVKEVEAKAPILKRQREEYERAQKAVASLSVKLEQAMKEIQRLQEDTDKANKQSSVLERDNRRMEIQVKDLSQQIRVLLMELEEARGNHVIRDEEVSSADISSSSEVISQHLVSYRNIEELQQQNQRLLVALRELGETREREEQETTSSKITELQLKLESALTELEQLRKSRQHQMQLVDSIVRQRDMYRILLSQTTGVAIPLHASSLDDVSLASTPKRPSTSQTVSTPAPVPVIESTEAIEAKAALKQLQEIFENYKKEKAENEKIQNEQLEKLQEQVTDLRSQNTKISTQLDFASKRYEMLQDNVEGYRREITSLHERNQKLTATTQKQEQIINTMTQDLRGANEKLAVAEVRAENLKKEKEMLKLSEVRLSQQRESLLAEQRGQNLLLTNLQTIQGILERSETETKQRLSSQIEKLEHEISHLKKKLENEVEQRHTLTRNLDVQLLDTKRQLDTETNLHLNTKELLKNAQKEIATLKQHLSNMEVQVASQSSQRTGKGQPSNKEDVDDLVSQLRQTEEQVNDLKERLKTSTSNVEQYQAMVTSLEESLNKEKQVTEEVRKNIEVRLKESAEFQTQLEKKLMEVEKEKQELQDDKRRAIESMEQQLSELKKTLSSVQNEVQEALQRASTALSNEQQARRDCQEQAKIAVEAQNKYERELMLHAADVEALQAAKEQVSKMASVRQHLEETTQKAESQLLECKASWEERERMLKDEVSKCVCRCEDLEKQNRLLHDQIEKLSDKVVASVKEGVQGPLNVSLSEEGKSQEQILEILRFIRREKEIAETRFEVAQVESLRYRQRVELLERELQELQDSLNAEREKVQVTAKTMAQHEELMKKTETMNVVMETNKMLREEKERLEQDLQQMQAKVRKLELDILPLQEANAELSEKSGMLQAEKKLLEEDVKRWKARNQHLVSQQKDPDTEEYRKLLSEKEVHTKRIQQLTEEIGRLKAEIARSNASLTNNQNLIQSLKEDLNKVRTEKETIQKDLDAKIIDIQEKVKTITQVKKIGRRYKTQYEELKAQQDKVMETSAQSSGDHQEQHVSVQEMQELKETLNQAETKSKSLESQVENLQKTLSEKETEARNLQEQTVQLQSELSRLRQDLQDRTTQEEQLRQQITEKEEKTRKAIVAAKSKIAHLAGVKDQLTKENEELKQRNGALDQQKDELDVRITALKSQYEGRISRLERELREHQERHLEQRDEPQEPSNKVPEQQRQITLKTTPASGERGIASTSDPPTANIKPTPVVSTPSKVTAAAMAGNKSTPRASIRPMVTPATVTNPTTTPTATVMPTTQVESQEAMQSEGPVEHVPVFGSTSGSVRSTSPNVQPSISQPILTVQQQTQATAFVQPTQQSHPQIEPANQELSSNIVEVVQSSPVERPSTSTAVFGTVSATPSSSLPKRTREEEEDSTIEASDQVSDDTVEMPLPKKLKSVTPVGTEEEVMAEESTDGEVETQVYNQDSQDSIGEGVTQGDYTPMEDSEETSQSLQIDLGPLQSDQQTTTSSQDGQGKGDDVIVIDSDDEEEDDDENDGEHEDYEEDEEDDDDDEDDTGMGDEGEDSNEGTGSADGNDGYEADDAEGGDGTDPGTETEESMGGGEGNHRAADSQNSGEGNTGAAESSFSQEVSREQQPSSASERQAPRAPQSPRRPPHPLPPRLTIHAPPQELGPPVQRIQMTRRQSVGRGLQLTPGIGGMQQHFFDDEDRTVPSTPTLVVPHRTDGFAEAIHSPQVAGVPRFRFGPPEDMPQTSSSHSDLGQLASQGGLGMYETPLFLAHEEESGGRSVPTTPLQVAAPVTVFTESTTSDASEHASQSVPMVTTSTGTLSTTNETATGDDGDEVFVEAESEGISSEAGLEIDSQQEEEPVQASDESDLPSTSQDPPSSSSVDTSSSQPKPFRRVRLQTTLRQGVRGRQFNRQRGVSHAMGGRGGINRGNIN
UniProt P09429: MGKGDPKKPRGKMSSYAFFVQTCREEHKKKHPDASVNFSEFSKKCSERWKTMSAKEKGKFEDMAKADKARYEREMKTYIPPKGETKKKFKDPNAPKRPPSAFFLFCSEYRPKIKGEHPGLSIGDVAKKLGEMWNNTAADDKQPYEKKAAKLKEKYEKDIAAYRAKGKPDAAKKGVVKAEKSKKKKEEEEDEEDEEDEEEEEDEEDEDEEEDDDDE
UniProt P00374: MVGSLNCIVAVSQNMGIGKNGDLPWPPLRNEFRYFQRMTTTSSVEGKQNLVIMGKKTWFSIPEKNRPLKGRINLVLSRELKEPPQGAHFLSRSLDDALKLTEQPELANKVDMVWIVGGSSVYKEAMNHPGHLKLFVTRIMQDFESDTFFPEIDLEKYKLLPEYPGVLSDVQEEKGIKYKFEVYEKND
UniProt P16615: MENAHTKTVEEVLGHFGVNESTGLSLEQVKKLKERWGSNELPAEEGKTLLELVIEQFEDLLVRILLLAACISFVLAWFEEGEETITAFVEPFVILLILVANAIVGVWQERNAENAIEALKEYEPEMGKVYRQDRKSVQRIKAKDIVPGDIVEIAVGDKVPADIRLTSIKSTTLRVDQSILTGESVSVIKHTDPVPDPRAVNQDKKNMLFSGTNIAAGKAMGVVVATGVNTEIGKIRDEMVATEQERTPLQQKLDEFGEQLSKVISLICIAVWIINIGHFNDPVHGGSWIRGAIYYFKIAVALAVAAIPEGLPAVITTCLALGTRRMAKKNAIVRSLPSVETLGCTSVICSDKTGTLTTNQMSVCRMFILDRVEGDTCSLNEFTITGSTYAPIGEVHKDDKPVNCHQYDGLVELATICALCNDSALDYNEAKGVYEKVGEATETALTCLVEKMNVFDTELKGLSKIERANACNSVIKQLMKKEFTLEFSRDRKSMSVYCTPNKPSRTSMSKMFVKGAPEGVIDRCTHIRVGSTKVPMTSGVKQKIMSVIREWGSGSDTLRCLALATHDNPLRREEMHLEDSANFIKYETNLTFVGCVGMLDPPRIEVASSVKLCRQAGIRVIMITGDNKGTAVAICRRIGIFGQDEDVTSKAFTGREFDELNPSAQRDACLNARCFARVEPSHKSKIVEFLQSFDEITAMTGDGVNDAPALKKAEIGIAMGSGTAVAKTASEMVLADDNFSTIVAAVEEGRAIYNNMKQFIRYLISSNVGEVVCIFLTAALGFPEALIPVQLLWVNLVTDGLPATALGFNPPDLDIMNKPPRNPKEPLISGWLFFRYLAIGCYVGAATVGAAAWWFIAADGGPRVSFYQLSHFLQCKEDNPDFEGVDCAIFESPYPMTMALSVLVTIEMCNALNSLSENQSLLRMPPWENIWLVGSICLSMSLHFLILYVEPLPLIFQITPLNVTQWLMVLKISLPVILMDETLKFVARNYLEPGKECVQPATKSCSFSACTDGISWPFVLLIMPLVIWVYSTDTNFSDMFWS
UniProt O96013: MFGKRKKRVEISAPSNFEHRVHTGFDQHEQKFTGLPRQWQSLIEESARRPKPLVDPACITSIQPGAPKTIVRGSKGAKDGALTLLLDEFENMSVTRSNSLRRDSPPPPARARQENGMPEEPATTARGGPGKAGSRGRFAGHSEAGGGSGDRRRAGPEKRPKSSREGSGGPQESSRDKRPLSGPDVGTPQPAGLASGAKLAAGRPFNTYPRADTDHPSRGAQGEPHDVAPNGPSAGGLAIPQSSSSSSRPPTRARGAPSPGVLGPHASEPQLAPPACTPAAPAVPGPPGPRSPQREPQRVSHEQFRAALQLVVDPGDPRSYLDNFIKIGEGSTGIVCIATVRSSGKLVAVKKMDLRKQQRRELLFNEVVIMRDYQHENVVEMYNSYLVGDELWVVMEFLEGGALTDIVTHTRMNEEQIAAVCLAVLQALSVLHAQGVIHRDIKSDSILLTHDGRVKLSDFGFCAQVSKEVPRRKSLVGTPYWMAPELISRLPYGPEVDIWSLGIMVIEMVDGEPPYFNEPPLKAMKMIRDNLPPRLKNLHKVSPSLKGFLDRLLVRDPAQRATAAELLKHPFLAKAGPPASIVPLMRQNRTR

Compound: Nc1ncnc2c1ncn2[C@@H]1O[C@H](COP(=O)(O)OP(=O)(O)NP(=O)(O)O)[C@@H](O)[C@H]1O [adenylyl imidodiphosphate]
Experiment: NP40-soluble protein abundance relative to vehicle (solubility fold change) (ratio); higher = more soluble protein in presence of AMP-PNP
Method in brief: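 Values are fold changes against the detergent-processed vehicle, based on vsn-normalised intensities. Jurkat crude lysate was treated at eight concentrations from 0.1 to 10 mM (10 min at room temperature, then 3 min at 37 °C), solubilised with 0.8% NP40 and benzonase, ultracentrifuged and analysed by TMT-labelled LC-MS/MS over three independent experiments.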

UniProt P10244 and related entries
NP40-soluble protein abundance (concentration: 0.1mM): 0.995 ± 0.037 | NP40-soluble protein abundance (concentration: 0.5mM): 1.01 ± 0.043

UniProt P16930 and related entries
NP40-soluble protein abundance (concentration: 0.1mM): 1.02 ± 0.03 | NP40-soluble protein abundance (concentration: 0.5mM): 0.999 ± 0.049

UniProt P04053 and related entries
NP40-soluble protein abundance (concentration: 0.1mM): 1.03 ± 0.035 | NP40-soluble protein abundance (concentration: 0.5mM): 1.01 ± 0.057

UniProt P00167 and related entries
NP40-soluble protein abundance (concentration: 0.1mM): 0.951 ± 0.018 | NP40-soluble protein abundance (concentration: 0.5mM): 0.996 ± 0.025

UniProt P05026 and related entries
NP40-soluble protein abundance (concentration: 0.1mM): 0.98 ± 0.039 | NP40-soluble protein abundance (concentration: 0.5mM): 1.05 ± 0.095

PLEK (UniProt P08567)
NP40-soluble protein abundance (concentration: 0.1mM): 1.03 ± 0.07 | NP40-soluble protein abundance (concentration: 0.5mM): 0.9869 ± 0.0088

UniProt P16083 and related entries
NP40-soluble protein abundance (concentration: 0.1mM): 0.979 ± 0.024 | NP40-soluble protein abundance (concentration: 0.5mM): 0.999 ± 0.022

RPLP2 (UniProt P05387)
NP40-soluble protein abundance (concentration: 0.1mM): 0.967 ± 0.03 | NP40-soluble protein abundance (concentration: 0.5mM): 0.984 ± 0.028

UniProt P14735 and related entries
NP40-soluble protein abundance (concentration: 0.1mM): 1.01 ± 0.014 | NP40-soluble protein abundance (concentration: 0.5mM): 0.99 ± 0.043

DBI (UniProt P07108)
NP40-soluble protein abundance (concentration: 0.1mM): 0.979 ± 0.018 | NP40-soluble protein abundance (concentration: 0.5mM): 1.06 ± 0.066

TGFB1 (UniProt P01137)
NP40-soluble protein abundance (concentration: 0.1mM): 0.994 ± 0.02 | NP40-soluble protein abundance (concentration: 0.5mM): 0.9829 ± 0.0086

GOT2 (UniProt P00505)
NP40-soluble protein abundance (concentration: 0.1mM): 1.01 ± 0.011 | NP40-soluble protein abundance (concentration: 0.5mM): 1 ± 0.035

TXNDC12 (UniProt O95881)
NP40-soluble protein abundance (concentration: 0.1mM): 0.96 ± 0.037 | NP40-soluble protein abundance (concentration: 0.5mM): 1 ± 0.056

BPGM (UniProt P07738)
NP40-soluble protein abundance (concentration: 0.1mM): 1.05 ± 0.12 | NP40-soluble protein abundance (concentration: 0.5mM): 0.983 ± 0.02

RALA (UniProt P11233)
NP40-soluble protein abundance (concentration: 0.1mM): 0.992 ± 0.018 | NP40-soluble protein abundance (concentration: 0.5mM): 1.02 ± 0.023

DARS (UniProt P14868)
NP40-soluble protein abundance (concentration: 0.1mM): 1.03 ± 0.018 | NP40-soluble protein abundance (concentration: 0.5mM): 0.997 ± 0.07

H2AFX (UniProt P16104)
NP40-soluble protein abundance (concentration: 0.1mM): 0.985 ± 0.077 | NP40-soluble protein abundance (concentration: 0.5mM): 1.01 ± 0.14

UniProt P14543
NP40-soluble protein abundance (concentration: 0.1mM): 1.04 ± 0.049 | NP40-soluble protein abundance (concentration: 0.5mM): 0.972 ± 0.078

CREB1 (UniProt P16220)
NP40-soluble protein abundance (concentration: 0.1mM): 1.01 ± 0.038 | NP40-soluble protein abundance (concentration: 0.5mM): 1.04 ± 0.016

ASS1 (UniProt P00966)
NP40-soluble protein abundance (concentration: 0.1mM): 1.012 ± 0.008 | NP40-soluble protein abundance (concentration: 0.5mM): 1.01 ± 0.017

UniProt P09488 and related entries
NP40-soluble protein abundance (concentration: 0.1mM): 1.02 ± 0.084 | NP40-soluble protein abundance (concentration: 0.5mM): 1.02 ± 0.04

UniProt P13473-2
NP40-soluble protein abundance (concentration: 0.1mM): 0.942 ± 0.025 | NP40-soluble protein abundance (concentration: 0.5mM): 0.986 ± 0.033

CTSD (UniProt P07339)
NP40-soluble protein abundance (concentration: 0.1mM): 0.998 ± 0.022 | NP40-soluble protein abundance (concentration: 0.5mM): 1.03 ± 0.043

SNRPB2 (UniProt P08579)
NP40-soluble protein abundance (concentration: 0.1mM): 1.02 ± 0.049 | NP40-soluble protein abundance (concentration: 0.5mM): 0.975 ± 0.039

SPN (UniProt P16150)
NP40-soluble protein abundance (concentration: 0.1mM): 0.996 ± 0.04 | NP40-soluble protein abundance (concentration: 0.5mM): 0.97 ± 0.031

CYC1 (UniProt P08574)
NP40-soluble protein abundance (concentration: 0.1mM): 1.01 ± 0.034 | NP40-soluble protein abundance (concentration: 0.5mM): 1.04 ± 0.056

FTH1 (UniProt P02794)
NP40-soluble protein abundance (concentration: 0.1mM): 1.04 ± 0.059 | NP40-soluble protein abundance (concentration: 0.5mM): 1.01 ± 0.043

UniProt P11498 and related entries
NP40-soluble protein abundance (concentration: 0.1mM): 1.018 ± 0.0058 | NP40-soluble protein abundance (concentration: 0.5mM): 0.984 ± 0.015

UniProt P06729
NP40-soluble protein abundance (concentration: 0.1mM): 0.987 ± 0.059 | NP40-soluble protein abundance (concentration: 0.5mM): 1.05 ± 0.14

EIF2S1 (UniProt P05198)
NP40-soluble protein abundance (concentration: 0.1mM): 1.01 ± 0.036 | NP40-soluble protein abundance (concentration: 0.5mM): 1.01 ± 0.049

UniProt P10398 and related entries
NP40-soluble protein abundance (concentration: 0.1mM): 1.04 ± 0.023 | NP40-soluble protein abundance (concentration: 0.5mM): 1.02 ± 0.041

SNRPA (UniProt P09012)
NP40-soluble protein abundance (concentration: 0.1mM): 1.007 ± 0.0071 | NP40-soluble protein abundance (concentration: 0.5mM): 1.02 ± 0.018

UniProt P04844 and related entries
NP40-soluble protein abundance (concentration: 0.1mM): 0.993 ± 0.031 | NP40-soluble protein abundance (concentration: 0.5mM): 0.993 ± 0.096

PCNA (UniProt P12004)
NP40-soluble protein abundance (concentration: 0.1mM): 0.9859 ± 0.0098 | NP40-soluble protein abundance (concentration: 0.5mM): 0.993 ± 0.011

HSP90B1 (UniProt P14625)
NP40-soluble protein abundance (concentration: 0.1mM): 0.982 ± 0.021 | NP40-soluble protein abundance (concentration: 0.5mM): 1.03 ± 0.032

UniProt P09543 and related entries
NP40-soluble protein abundance (concentration: 0.1mM): 0.995 ± 0.016 | NP40-soluble protein abundance (concentration: 0.5mM): 1 ± 0.033

UniProt P04035 and related entries
NP40-soluble protein abundance (concentration: 0.1mM): 0.982 ± 0.0089 | NP40-soluble protein abundance (concentration: 0.5mM): 0.976 ± 0.026

QDPR (UniProt P09417)
NP40-soluble protein abundance (concentration: 0.1mM): 0.968 ± 0.028 | NP40-soluble protein abundance (concentration: 0.5mM): 0.982 ± 0.017

HIST1H1D (UniProt P16402)
NP40-soluble protein abundance (concentration: 0.1mM): 1.03 ± 0.06 | NP40-soluble protein abundance (concentration: 0.5mM): 1.04 ± 0.061

MYL6B (UniProt P14649)
NP40-soluble protein abundance (concentration: 0.1mM): 1.01 ± 0.023 | NP40-soluble protein abundance (concentration: 0.5mM): 1.04 ± 0.073

UniProt P04075 and related entries
NP40-soluble protein abundance (concentration: 0.1mM): 1.01 ± 0.057 | NP40-soluble protein abundance (concentration: 0.5mM): 1.05 ± 0.081

UniProt O95980
NP40-soluble protein abundance (concentration: 0.1mM): 0.9795 ± 0.0044 | NP40-soluble protein abundance (concentration: 0.5mM): 0.983 ± 0.018

HMGN2 (UniProt P05204)
NP40-soluble protein abundance (concentration: 0.1mM): 0.946 ± 0.026 | NP40-soluble protein abundance (concentration: 0.5mM): 1.06 ± 0.22

HSPA4L (UniProt O95757)
NP40-soluble protein abundance (concentration: 0.1mM): 0.982 ± 0.036 | NP40-soluble protein abundance (concentration: 0.5mM): 1.01 ± 0.049

TPR (UniProt P12270)
NP40-soluble protein abundance (concentration: 0.1mM): 0.984 ± 0.027 | NP40-soluble protein abundance (concentration: 0.5mM): 0.996 ± 0.053

P15531-2|P22392-2|Q32Q12 (UniProt Q32Q12+P22392+P15531)
NP40-soluble protein abundance (concentration: 0.1mM): 1.07 ± 0.12 | NP40-soluble protein abundance (concentration: 0.5mM): 1.04 ± 0.1

HMGB1 (UniProt P09429)
NP40-soluble protein abundance (concentration: 0.1mM): 0.98 ± 0.018 | NP40-soluble protein abundance (concentration: 0.5mM): 1.11 ± 0.091

PRPS2 (UniProt P11908)
NP40-soluble protein abundance (concentration: 0.1mM): 0.997 ± 0.027 | NP40-soluble protein abundance (concentration: 0.5mM): 0.922 ± 0.06

AKR1B1 (UniProt P15121)
NP40-soluble protein abundance (concentration: 0.1mM): 0.997 ± 0.022 | NP40-soluble protein abundance (concentration: 0.5mM): 1 ± 0.055

UniProt P00374 and related entries
NP40-soluble protein abundance (concentration: 0.1mM): 1 ± 0.062 | NP40-soluble protein abundance (concentration: 0.5mM): 0.995 ± 0.04

PDIA4 (UniProt P13667)
NP40-soluble protein abundance (concentration: 0.1mM): 0.954 ± 0.012 | NP40-soluble protein abundance (concentration: 0.5mM): 0.989 ± 0.021

HNRNPL (UniProt P14866)
NP40-soluble protein abundance (concentration: 0.1mM): 1.04 ± 0.06 | NP40-soluble protein abundance (concentration: 0.5mM): 1.05 ± 0.082

ATP2A2 (UniProt P16615)
NP40-soluble protein abundance (concentration: 0.1mM): 1 ± 0.034 | NP40-soluble protein abundance (concentration: 0.5mM): 0.97 ± 0.051

GLUD1 (UniProt P00367)
NP40-soluble protein abundance (concentration: 0.1mM): 0.978 ± 0.012 | NP40-soluble protein abundance (concentration: 0.5mM): 0.966 ± 0.024

ACAA1 (UniProt P09110)
NP40-soluble protein abundance (concentration: 0.1mM): 0.9797 ± 0.0066 | NP40-soluble protein abundance (concentration: 0.5mM): 0.9896 ± 0.0088

UniProt P15813
NP40-soluble protein abundance (concentration: 0.1mM): 0.995 ± 0.024 | NP40-soluble protein abundance (concentration: 0.5mM): 1 ± 0.013

PAK4 (UniProt O96013)
NP40-soluble protein abundance (concentration: 0.1mM): 0.982 ± 0.022 | NP40-soluble protein abundance (concentration: 0.5mM): 1 ± 0.03

UniProt P08240
NP40-soluble protein abundance (concentration: 0.1mM): 0.98 ± 0.025 | NP40-soluble protein abundance (concentration: 0.5mM): 0.9671 ± 0.0082

UniProt P16278 and related entries
NP40-soluble protein abundance (concentration: 0.1mM): 0.989 ± 0.014 | NP40-soluble protein abundance (concentration: 0.5mM): 1.02 ± 0.028

IMPDH2 (UniProt P12268)
NP40-soluble protein abundance (concentration: 0.1mM): 1.04 ± 0.046 | NP40-soluble protein abundance (concentration: 0.5mM): 0.993 ± 0.059

UniProt P15812 and related entries
NP40-soluble protein abundance (concentration: 0.1mM): 1 ± 0.024 | NP40-soluble protein abundance (concentration: 0.5mM): 1 ± 0.038

UniProt P12814 and related entries
NP40-soluble protein abundance (concentration: 0.1mM): 0.9839 ± 0.0065 | NP40-soluble protein abundance (concentration: 0.5mM): 1.03 ± 0.034
